Test results published in publication PMC7156037.
These are yes or no findings as the source states them, for the method shown. In cells and extracts the contact can be indirect. These calls come from enrichment with a bait or labelling near it, and not all partners need be listed. Tags and fused reporters may be left off the sequences shown.

Sequences of proteins named here, by UniProt entry; tags and fusion partners are left off. A change or cut given only in a name is not applied to a line headed by its entry.
UniProt Q9LEV0: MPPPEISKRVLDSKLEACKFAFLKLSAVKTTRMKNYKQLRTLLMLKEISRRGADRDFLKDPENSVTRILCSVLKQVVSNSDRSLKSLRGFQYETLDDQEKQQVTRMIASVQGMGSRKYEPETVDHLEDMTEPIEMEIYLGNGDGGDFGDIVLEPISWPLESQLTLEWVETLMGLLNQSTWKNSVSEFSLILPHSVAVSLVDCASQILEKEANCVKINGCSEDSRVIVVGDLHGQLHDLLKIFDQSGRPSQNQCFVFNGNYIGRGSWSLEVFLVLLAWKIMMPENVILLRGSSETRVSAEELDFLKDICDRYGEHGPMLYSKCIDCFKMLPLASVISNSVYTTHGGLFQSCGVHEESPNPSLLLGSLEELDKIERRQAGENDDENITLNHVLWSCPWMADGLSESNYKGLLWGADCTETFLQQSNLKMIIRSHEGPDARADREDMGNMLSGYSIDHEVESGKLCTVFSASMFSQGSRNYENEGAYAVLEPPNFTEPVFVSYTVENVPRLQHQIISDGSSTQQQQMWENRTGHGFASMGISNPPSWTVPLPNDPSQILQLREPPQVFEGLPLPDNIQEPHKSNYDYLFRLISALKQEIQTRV

T1: MAIN-LIKE 1 (MAIL1), FLAG-tagged (A. thaliana) (UniProt Q9SK32)
T1 sequence: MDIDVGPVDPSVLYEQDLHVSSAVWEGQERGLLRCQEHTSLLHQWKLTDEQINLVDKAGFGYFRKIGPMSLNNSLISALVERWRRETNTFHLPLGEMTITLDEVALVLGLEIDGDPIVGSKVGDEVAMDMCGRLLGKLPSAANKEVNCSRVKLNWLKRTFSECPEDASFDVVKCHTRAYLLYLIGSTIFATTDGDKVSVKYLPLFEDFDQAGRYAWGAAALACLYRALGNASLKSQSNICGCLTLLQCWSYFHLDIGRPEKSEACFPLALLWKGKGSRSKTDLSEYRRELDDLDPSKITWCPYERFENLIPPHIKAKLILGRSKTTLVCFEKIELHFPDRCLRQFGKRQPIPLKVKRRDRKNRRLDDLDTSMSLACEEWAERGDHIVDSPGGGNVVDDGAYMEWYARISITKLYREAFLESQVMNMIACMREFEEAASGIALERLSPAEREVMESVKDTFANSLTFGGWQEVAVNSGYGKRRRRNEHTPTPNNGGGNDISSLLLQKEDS

T2: … OF … (MAIN), FLAG-tagged (A. thaliana) (UniProt Q9LMT7)
T2 sequence: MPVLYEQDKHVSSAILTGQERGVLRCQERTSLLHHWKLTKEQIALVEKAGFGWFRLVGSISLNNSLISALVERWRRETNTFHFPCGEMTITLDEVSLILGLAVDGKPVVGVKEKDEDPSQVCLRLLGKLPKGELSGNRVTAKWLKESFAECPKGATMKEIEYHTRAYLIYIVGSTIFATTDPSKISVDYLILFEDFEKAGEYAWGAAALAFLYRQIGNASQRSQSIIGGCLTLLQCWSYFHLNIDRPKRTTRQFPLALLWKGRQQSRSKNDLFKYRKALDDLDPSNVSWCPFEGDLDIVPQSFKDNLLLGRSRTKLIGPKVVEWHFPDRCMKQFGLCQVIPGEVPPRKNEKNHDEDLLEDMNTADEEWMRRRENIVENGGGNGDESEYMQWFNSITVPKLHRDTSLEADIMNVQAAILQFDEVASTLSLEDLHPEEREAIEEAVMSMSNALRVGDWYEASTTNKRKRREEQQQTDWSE


Assays:
[1] = target: T1, MAIN-LIKE 1 (MAIL1), FLAG-tagged (A. thaliana); test: affinity purification with mass spectrometry; FLAG-tagged bait captured on M2 magnetic FLAG-beads from extract of 3-week-old seedlings; IP buffer 50mM Tris HCl pH 7.6, 150mM NaCl, 5mM MgCl2, 0.1% Nonidet P-40, 10% glycerol, 0.5mM DTT; 90 min at 4°C; seven washes; eluted with 3x-FLAG peptides; WT plants as negative control
[2] = target: T2, … OF … (MAIN), FLAG-tagged (A. thaliana); test: as above

binding [1] | binding [2] | Molecule
binds | binds | PP7-like (PP7L), endogenous (from UniProt Q9LEV0)
 | binds | MAIN-LIKE 1 (MAIL1), endogenous (protein, UniProt Q9SK32 1-509) MDIDVGPVDPSVLYEQDLHVSSAVWEGQERGLLRCQEHTSLLHQWKLTDEQINLVDKAGFGYFRKIGPMSLNNSLISALVERWRRETNTFHLPLGEMTITLDEVALVLGLEIDGDPIVGSKVGDEVAMDMCGRLLGKLPSAANKEVNCSRVKLNWLKRTFSECPEDASFDVVKCHTRAYLLYLIGSTIFATTDGDKVSVKYLPLFEDFDQAGRYAWGAAALACLYRALGNASLKSQSNICGCLTLLQCWSYFHLDIGRPEKSEACFPLALLWKGKGSRSKTDLSEYRRELDDLDPSKITWCPYERFENLIPPHIKAKLILGRSKTTLVCFEKIELHFPDRCLRQFGKRQPIPLKVKRRDRKNRRLDDLDTSMSLACEEWAERGDHIVDSPGGGNVVDDGAYMEWYARISITKLYREAFLESQVMNMIACMREFEEAASGIALERLSPAEREVMESVKDTFANSLTFGGWQEVAVNSGYGKRRRRNEHTPTPNNGGGNDISSLLLQKEDS
